Source: PubChem BioAssay AID2685 (National Center for Advancing Translational Sciences (NCATS), 2010)
This is one part of the list. The main result of the screen is listed elsewhere. These columns were measured beside it and carry no call. The list favours compounds with an active or inconclusive main result. Words in brackets tell the shape of the fitted curve; partial curves, single points and poor fits give uncertain potencies.

Experiment: qHTS Assay for Lipid Storage Modulators in Drosophila S3 Cells;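 on cell number change: cells counted by Cell Tracker Red CMTPX staining in the red channel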
Conditions: BODIPY lipid droplet fluorescence, 18-24 h; for cell number change: measured here: cell count max response, cells fed with added oleic acid
Summary of the method: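 Drosophila S3 cells loaded with oleic acid (400 uM, as added) and compounds at several concentrations; lipid droplets imaged by 488-nm laser-scanning cytometry, 500–530 nm intensity and object ratio to cell channel. Percent activity normalized to 20 uM Triacsin C.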

[1] = measured here: cell number channel AC50, cells fed with added oleic acid
[2] = measured here: lipid fluorescence (Fed channel) AC50, cells fed with added oleic acid

| SMILES | cell number change | AC50 [1] | AC50 [2] |
| --- | --- | --- | --- |
| CC(=O)c1c(C)oc2ccc(NS(=O)(=O)c3ccc(C)cc3)cc12 | 80.4% | 20.6 µM [rising, partial curve] |  |
| CCOC(=O)c1sc2ncn(CC(=O)N(CC)CC)c(=O)c2c1C |  |  | 29.1 µM [falling, single point] |
| Cc1ccc(C)n1CCN1CCN(CC(=O)Nc2ccc(S(N)(=O)=O)cc2)CC1 | 18.4% |  |  |
| Cn1c(SCc2ccc(F)cc2)nnc1-c1ccncc1 |  | 6.51 µM [rising, single point] |  |
| Cc1cc(C)cc(N=C2SC(CC(=O)Nc3ccccc3)C(=O)N2CCN2CCOCC2)c1 (stereo unspecified) | 29.9% |  |  |
| Cc1csc(NC(=O)CSc2nc3ccccc3s2)n1 | -13.9% |  | 32.6 µM [falling, single point] |
| Cc1ccc([N+](=O)[O-])cc1S(=O)(=O)n1ccnc1C | -33.5% | 8.2 µM [falling, partial curve, poor fit] | 10.3 µM [falling, partial curve] |
| CC(C)COCC1CC2(CC(C)C(=O)CC2=O)C(=O)O1 (stereo unspecified) | 1.97% |  | 8.2 µM [rising, partial curve, poor fit] |
| N#CCCN1CCC(NC(=O)OCc2ccccc2)CCC1=O (stereo unspecified) | -1.2% |  |  |
| Cc1ccc(/C=N/NC(=O)Nc2ccccc2)o1 | 16.1% |  | 32.6 µM [rising, single point] |
| Nc1nc(SCC(=O)Nc2ccc(F)cc2)[nH]c(=O)c1NC(=O)c1ccc(F)c(F)c1 | 36.8% | 5.8 µM [rising, full curve] |  |
| COc1cc(CNC(=O)C2CCCC2)cc(OC)c1OC |  |  | 0.651 µM [rising, single point] |
| COCCCN1CN(S(=O)(=O)c2ccc(Cl)cc2)c2nc3ccccc3nc21 |  | 4.11 µM [rising, partial curve] | 0.731 µM [rising, full curve] |
| N#C/C(=C/c1ccc(N2CCCCC2)o1)C(=O)Nc1ccc2ccccc2c1 | -97.5% | 5.17 µM [falling, full curve] | 0.517 µM [falling, full curve] |
| CCCn1nnnc1NCc1ccc(C(C)C)cc1 | -6.87% |  |  |
| CCCCCCNC(=O)CSc1nccn1Cc1ccccc1 | 110% | 14.6 µM [rising, partial curve] | 16.4 µM [rising, partial curve] |
| Nc1cc(N)nc(SCC(=O)N2CCc3ccccc32)n1 |  | 2.59 µM [rising, partial curve] |  |
| COc1ccc(CCNC(=O)CC2SC(=Nc3cc(C)cc(C)c3)NC2=O)cc1OC (stereo unspecified) | 22.7% |  | 11.6 µM [rising, partial curve] |

In the list so far, 3 have a furan ring, fused or not.

| SMILES | cell number change | AC50 [1] | AC50 [2] |
| --- | --- | --- | --- |
| CC(=O)c1c(C)oc2ccc(NS(=O)(=O)c3ccc(C)cc3)cc12 | 80.4% | 20.6 µM [rising, partial curve] |  |
| Cc1ccc(/C=N/NC(=O)Nc2ccccc2)o1 | 16.1% |  | 32.6 µM [rising, single point] |
| N#C/C(=C/c1ccc(N2CCCCC2)o1)C(=O)Nc1ccc2ccccc2c1 | -97.5% | 5.17 µM [falling, full curve] | 0.517 µM [falling, full curve] |
